According to the supplement of paper PMC8326762, “A Small Molecule Inhibitor of Pex3–Pex19 Interaction Disrupts Glycosome Biogenesis and Causes Lethality in Trypanosoma brucei” (Frontiers in Cell and Developmental Biology, 2021):
Counter-ions that a name gives are not always drawn. The list shows a part of the results. The data scatter; read single values as rough.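 Optical density at 600 nm measured yeast growth. Because the two-hybrid strains grew without histidine, growth required Pex3–Pex19 binding. Trypanosome selectivity meant a compound inhibited the trypanosome-pair strain's growth by more than 65% but the human-pair strain's by less than 65%.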

Legend:
[1] = tested on: Saccharomyces cerevisiae HF7c pdr5Δ; assay: general growth inhibition of yeast HF7c pdr5Δ in -Leu -Trp medium, relative to DMSO; higher = stronger general growth inhibition; conditions: 100 µM; 24 h
[2] = tested on: human PEX3-PEX19 interaction (yeast two-hybrid); assay: growth inhibition of yeast two-hybrid strain reporting HsPex3-HsPex19 interaction, relative to DMSO; higher = stronger inhibition of human Pex3-Pex19 interaction / growth; conditions: 100 µM; 24 h; 3-aminotriazole 10 mM
[3] = tested on: T. brucei Pex3-Pex19 interaction (yeast two-hybrid); assay: growth inhibition of yeast two-hybrid strain reporting TbPex3-TbPex19 interaction, relative to DMSO; higher = stronger inhibition of T. brucei Pex3-Pex19 interaction / growth; conditions: 100 µM; 24 h

Row | Compound | general growth inhibition [1] | growth inhibition [2] | growth inhibition [3]
1 | C=CCN1CCc2c(cc(O)c(O)c2Br)[C@@H](c2ccccc2)C1 [R(+)-6-Bromo-APB hydrobromide] | 47.1% | 41.9% | 63.1%
2 | Nc1ccc(-c2nc3ccc(-c4nc5ccc(N)cc5[nH]4)cc3[nH]2)cc1 | 77.7% | 69.9% | 63%
3 | Nc1nc2c(nc(Br)n2C2OC3COP(=O)(O)O[C@@H]3C2O)c(=O)[nH]1 (stereo partly drawn) [8-Bromo-cGMP sodium] | 53.5% | 36.7% | 60.2%
4 | COc1ccc2c(c1OC)C(=O)O[C@@H]2[C@H]1c2c(cc3c(c2OC)OCO3)CCN1C [Noscapine hydrchloride] | 53.4% | 43.4% | 66.7%
5 | CC[N+](CC)(CC)CC [Tetraethylammonium chloride] | 52.8% | 48.7% | 59.8%
6 | CNC1(C)C2CCC(C2)C1(C)C (stereo not drawn) [Mecamylamine hydrochloride] | 49.1% | 38.4% | 55%
7 | C[C@@H](N)[C@H]1CC[C@H](C(=O)Nc2ccncc2)CC1 | 30% | 36.9% | 58.5%
8 | N=C(N)NC(=O)c1nc(Cl)c(N)nc1N [Amiloride hydrochloride] | 38.8% | 40.7% | 56.4%
9 | CN1[C@@H]2CC[C@H]1C[C@@H](OC(c1ccccc1)c1ccccc1)C2 [Benztropine mesylate] | 40.5% | 41.4% | 64.2%
10 | CC1c2cccc(O)c2C(O)=C2C(=O)C3(O)C(O)=C(C(N)=O)C(=O)C(N(C)C)C3C(O)C21 (stereo not drawn) [Doxycycline hydrochloride] | 3.19% | -15.8% | 24.6%
11 | COc1ccc(-c2cc(=O)c3c(O)c(OC)c(OC)cc3o2)cc1O [Eupatorin] | 19.8% | 10.8% | 41.7%

A draw from above in order of SMILES length, rising:
Row | Compound | general growth inhibition [1] | growth inhibition [2] | growth inhibition [3]
8 | N=C(N)NC(=O)c1nc(Cl)c(N)nc1N [Amiloride hydrochloride] | 38.8% | 40.7% | 56.4%
7 | C[C@@H](N)[C@H]1CC[C@H](C(=O)Nc2ccncc2)CC1 | 30% | 36.9% | 58.5%
1 | C=CCN1CCc2c(cc(O)c(O)c2Br)[C@@H](c2ccccc2)C1 [R(+)-6-Bromo-APB hydrobromide] | 47.1% | 41.9% | 63.1%
